Data published in patent US8691944.
No constants are given. Whether binding was seen depends on the method and setting. Some entries that bind do so weakly or less than the wild type.

Amino acid sequences for entries named in this document (tags omitted). Residues count along the entry.
UniProt P09038, residues 143-288: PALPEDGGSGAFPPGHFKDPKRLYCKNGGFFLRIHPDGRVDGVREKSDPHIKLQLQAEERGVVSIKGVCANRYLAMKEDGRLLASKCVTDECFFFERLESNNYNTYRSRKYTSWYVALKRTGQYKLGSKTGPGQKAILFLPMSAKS
UniProt P01127, residues 82-190: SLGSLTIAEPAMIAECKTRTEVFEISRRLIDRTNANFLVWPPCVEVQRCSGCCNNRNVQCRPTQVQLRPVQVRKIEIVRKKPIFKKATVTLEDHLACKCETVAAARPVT
UniProt P01137, residues 279-390: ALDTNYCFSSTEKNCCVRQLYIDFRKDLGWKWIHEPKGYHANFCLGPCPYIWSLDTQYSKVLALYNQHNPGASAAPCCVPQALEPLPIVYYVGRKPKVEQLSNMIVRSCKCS

What was measured:
Assay in all cases: peptide binding assay
[1] = target: basic fibroblast growth factor (bFGF, FGF-2) (UniProt P09038)
[2] = target: platelet-derived growth factor-BB (PDGF-BB) (UniProt P01127)
[3] = target: transforming growth factor-β1 (TGF-β1) (UniProt P01137)

Measured: binding

QLISIQQYGHQEVTRFDFTTTSTST [peptide 2 (…)]
binds: [1] | [2] | [3]

QPSVGQQMIFEEHGFRRTTPPTTAT [peptide 4 (…)]
binds: [1] | [2] | [3]

NGQTPIQRTIKPDVRSYTITGLQPGT [peptide 3 (…)]
binds: [1] | [2] | [3]

QPSHISKYILRWRPKNSVGRWKEAT [peptide 1 (…)]
binds: [1] | [2] | [3]
